Binding data for one molecule are collected here from publication PMC9100061.

Protein sequences, listed by entry. Tags and fused reporters are not part of them.
UniProt Q5VVQ6: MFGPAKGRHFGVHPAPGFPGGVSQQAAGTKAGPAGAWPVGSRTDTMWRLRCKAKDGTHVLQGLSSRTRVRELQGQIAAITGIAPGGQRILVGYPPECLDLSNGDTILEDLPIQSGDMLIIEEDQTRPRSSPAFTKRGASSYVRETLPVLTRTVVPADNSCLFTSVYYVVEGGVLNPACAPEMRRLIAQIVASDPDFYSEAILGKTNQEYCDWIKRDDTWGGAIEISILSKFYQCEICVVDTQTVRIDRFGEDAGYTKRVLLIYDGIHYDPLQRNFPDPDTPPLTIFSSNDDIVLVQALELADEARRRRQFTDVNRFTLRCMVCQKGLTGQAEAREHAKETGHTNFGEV

No constants are given. Whether binding was seen depends on the method and setting. In cells and extracts the contact can be indirect. Some results given as binding are weak or reduced against the parent protein; the word gives no strength. Where a sequence is shown, tags or fusion partners need not be part of it.

One experiment addresses WT YOD1-FLAG (UniProt Q5VVQ6). In words: co-IP; IP with Anti-FLAG M2 Affinity Gel under native conditions from TorsinKO HeLa cells co-expressing MLF2-HA and a FLAG-tagged construct for 24 h; NET buffer (150 mM NaCl, 50 mM Tris pH 7.4, 0.5% NP-40) with 5 mM NEM; immunoblot against FLAG and HA.
In experiment [1] the target is T1, FLAG-tagged UBXD1 (human (amplified from HeLa cell cDNA)) (UniProt Q9BZV1).
T1 sequence: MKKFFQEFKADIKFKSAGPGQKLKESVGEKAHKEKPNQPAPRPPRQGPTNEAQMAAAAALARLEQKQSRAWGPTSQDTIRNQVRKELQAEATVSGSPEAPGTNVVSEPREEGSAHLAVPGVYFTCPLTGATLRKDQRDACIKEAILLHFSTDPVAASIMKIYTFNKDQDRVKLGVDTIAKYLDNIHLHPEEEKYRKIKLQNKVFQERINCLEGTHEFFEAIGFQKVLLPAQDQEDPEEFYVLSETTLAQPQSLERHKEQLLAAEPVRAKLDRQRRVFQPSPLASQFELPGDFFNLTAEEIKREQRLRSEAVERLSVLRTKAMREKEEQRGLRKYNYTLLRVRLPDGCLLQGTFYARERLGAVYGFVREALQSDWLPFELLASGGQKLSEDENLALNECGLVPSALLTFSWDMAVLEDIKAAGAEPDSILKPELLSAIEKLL
Described as above.

B1: myeloid leukemia factor 2 (MLF2), HA-tagged (protein, UniProt Q15773 1-248)
chain: MFRFMRDVEPEDPMFLMDPFAIHRQHMSRMLSGGFGYSPFLSITDGNMPGTRPASRRMQQAGAVSPFGMLGMSGGFMDMFGMMNDMIGNMEHMTAGGNCQTFSSSTVISYSNTGDGAPKVYQETSEMRSAPGGIRETRRTVRDSDSGLEQMSIGHHIRDRAHILQRSRNHRTGDQEERQDYINLDESEAAAFDDEWRRETSRFRQQRPLEFRRLESSGAGGRRAEGPPRLAIQGPEDSPSRQSRRYDW
In the case of B1, the binding entry (in the experiment with WT YOD1-FLAG; in experiment [1]) was “binds” throughout.
